According to publication PMC9295057:
No constants are given. Whether binding was seen depends on the method and setting. Binding seen in cells or lysates may run through a third protein.

By UniProt entry, the sequences of proteins in these tests, tags left out. Residues count along the entry.
UniProt Q03405, residues 23-305: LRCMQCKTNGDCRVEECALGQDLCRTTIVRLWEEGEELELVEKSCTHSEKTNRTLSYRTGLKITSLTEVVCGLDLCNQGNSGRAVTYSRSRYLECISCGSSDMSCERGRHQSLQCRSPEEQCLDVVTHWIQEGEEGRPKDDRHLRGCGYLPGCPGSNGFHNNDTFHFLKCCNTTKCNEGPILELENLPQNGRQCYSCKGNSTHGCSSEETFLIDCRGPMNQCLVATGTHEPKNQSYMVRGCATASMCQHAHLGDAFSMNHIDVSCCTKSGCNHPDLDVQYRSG
UniProt Q9NQB0: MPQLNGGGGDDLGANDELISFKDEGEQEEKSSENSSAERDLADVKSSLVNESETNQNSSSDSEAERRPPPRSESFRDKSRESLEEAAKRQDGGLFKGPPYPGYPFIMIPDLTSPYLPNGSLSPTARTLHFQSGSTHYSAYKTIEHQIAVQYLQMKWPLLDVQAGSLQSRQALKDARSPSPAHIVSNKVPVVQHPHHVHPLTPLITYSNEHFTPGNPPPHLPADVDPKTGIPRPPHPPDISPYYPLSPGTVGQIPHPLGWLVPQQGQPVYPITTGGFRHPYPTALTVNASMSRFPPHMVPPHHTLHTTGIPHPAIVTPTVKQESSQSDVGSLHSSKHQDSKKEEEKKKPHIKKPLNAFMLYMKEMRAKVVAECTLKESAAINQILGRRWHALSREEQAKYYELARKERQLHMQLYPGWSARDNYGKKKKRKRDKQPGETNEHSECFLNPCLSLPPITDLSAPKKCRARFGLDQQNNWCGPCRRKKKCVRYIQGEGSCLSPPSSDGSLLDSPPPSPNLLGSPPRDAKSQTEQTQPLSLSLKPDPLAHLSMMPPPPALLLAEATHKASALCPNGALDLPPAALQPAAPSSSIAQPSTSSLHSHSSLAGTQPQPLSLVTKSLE

Biological target: urokinase-type plasminogen activator receptor (PLAUR) (UniProt Q03405)
Assay: co-IP; lysates incubated with Flag affinity beads; interacting proteins detected by western blot; cells and Flag-tagged partner not stated

binding: no binding
Substance: Transcription Factor 7 Like 2 (TCF7L2) (from UniProt Q9NQB0 1-619)
